Some of these results come from one statement about several compounds together.
Legend:
Myzus persicae = test: Test for control efficacy on Myzus persicae; assay type: in vivo; conditions: 500 ppm, foliar application to potted Chinese cabbage, 6 days after application
Source text: Test for Control Efficacy on Myzus persicae Chinese cabbage plants were planted in plastic pots (diameter: 8 cm, height: 8 cm), Green peach aphids (M. persicae) were propagated on the plants, and the number of surviving Green peach aphids in each pot was counted. […] The agrochemical dispersions were applied to the foliage of the potted Chinese cabbage plants. After the plants were air-dried, the pots were kept in a greenhouse. At 6 days after the foliar application, the number of surviving Green peach aphids on the Chinese cabbage plant in each pot was counted, the control rate was calculated according to the formula shown below, and the control efficacy was evaluated according to the criteria shown below. Control rate=100−{(T×Ca)/(Ta×C)}×100 [Math. 1] Ta: the number of survivors before the foliar application in a treatment plot T: the number of survivors after the foliar application in a treatment plot Ca: the number of survivors before the foliar application in a non-treatment plot C: the number of survivors after the foliar application in a non-treatment plot Criteria A: the control rate is 100%. […] C: the control rate is 80 to 89%.

Laodelphax striatellus = test: Insecticidal test on Laodelphax striatellus; assay type: in vivo; conditions: 500 ppm, rice seedlings dipped 30 seconds, 3rd-instar larvae, 8 days after inoculation
Procedure: Insecticidal Test on Laodelphax striatellus
Rice plant seedlings (variety: Nihonbare) were dipped in the agrochemical dispersions for 30 seconds. After air-dried, each seedling was put into a separate glass test tube and inoculated with ten 3rd-instar larvae of L. striatellus, and then the glass test tubes were capped with cotton plugs. At 8 days after the inoculation, the numbers of surviving larvae and dead larvae were counted, the corrected mortality rate was calculated according to the formula shown below, and the insecticidal efficacy was evaluated according to the criteria shown below. Corrected mortality rate (%)=100×(Survival rate in a non-treatment plot−Survival rate in a treatment plot)/Survival rate in a non-treatment plot [Math. 2] Corrected Mortality Rate A: the corrected mortality rate is 100%.

Plutella xylostella = test: Insecticidal test on Plutella xylostella; assay type: in vivo; conditions: 500 ppm, Chinese cabbage seedlings with laid eggs dipped about 30 seconds, 6 days after dip treatment, 25° C.
Procedure: Insecticidal Test on Plutella xylostella
Adults of P. xylostella were released onto Chinese cabbage seedlings and allowed to lay eggs thereon. […] After air-dried, the seedlings were kept in a thermostatic chamber at 25° C. […] This test was conducted in triplicate using 10 adults of P. xylostella per plot. Corrected mortality rate (%)=100×(Number of hatched larvae in a non-treatment plot−Number of hatched larvae in a treatment plot)/Number of hatched larvae in a non-treatment plot [Math. 3]

Rhipicephalus sanguineus = test: Parasiticidal test on Rhipicephalus sanguineus; assay type: in vivo; conditions: 100 ppm, treated filter paper, nymphs, 27° C., 48 hours after treatment
Procedure: Parasiticidal Test on Rhipicephalus sanguineus
The diluted formulations were applied dropwise onto filter paper pieces placed in separate vials. The filter paper pieces were dried. Ten nymphs of R. sanguineus were placed into each vial and maintained at 27° C. with 80% humidity under a 12L12D light-dark cycle (L: light time, D: dark time). At 48 hours after agrochemical treatment, the numbers of surviving and dead nymphs were counted, and the corrected mortality rate was calculated according to the formula of Math. 4.

Haemonchus contortus = test: Parasiticidal test on Haemonchus contortus (larval motility); conditions: 100 ppm, 1st-instar larvae, 96-well plates, 27° C., 96 hours
Source text: Parasiticidal Test on Haemonchus contortus
Eggs of H. contortus were collected from feces of a goat and hatched in water. […] Percent inhibition in motility (%)=100×(Average motility in negative control wells−Average motility in treated wells)/Average motility in negative control wells [Math. 5]

Dirofilaria immitis = test: Parasiticidal test on Dirofilaria immitis (larval motility); conditions: 50 ppm, L1 stage larvae, 96-well plates, 37° C., 72 hours
Ctenocephalides felis = test: Parasiticidal test on Ctenocephalides felis; assay type: in vivo; conditions: 50 ppm in bovine blood, adults, artificial feeding system 35° C., 24 hours after treatment

Compound | control efficacy (control rate), activity level (Myzus persicae) | insecticidal efficacy (corrected mortality rate), activity level (Laodelphax striatellus) | insecticidal efficacy (corrected mortality rate), activity level (Plutella xylostella) | corrected mortality rate (Rhipicephalus sanguineus) | percent inhibition in motility (Haemonchus contortus) | percent inhibition in motility (Dirofilaria immitis) | corrected mortality rate (Ctenocephalides felis)
CCS(=O)(=O)c1cc(C2CC2)cnc1-c1nc2ccc(OC(F)(F)C(F)F)cc2n1C [Compound 1-82] | A (the control rate is 100%.) | A (the corrected mortality rate is 100%.) | A (the corrected mortality rate is 100%.) |  |  |  | 
CC[S+]([O-])c1cc(C2CC2)cnc1-c1nc2cc(C(F)(C(F)(F)F)C(F)(F)F)c(F)cc2n1C (stereo not shown) [Compound 1-20] | A (the control rate is 100%.) | A (the corrected mortality rate is 100%.) | A (the corrected mortality rate is 100%.) |  |  |  | 
CCSc1cc(C2CC2)cnc1-c1nc2cc(C(F)(C(F)(F)F)C(F)(F)F)ccc2n1C [Compound 1-16] | A (the control rate is 100%.) | A (the corrected mortality rate is 100%.) | A (the corrected mortality rate is 100%.) |  |  |  | 
CCS(=O)(=O)c1cc(C2CC2)cnc1-c1nc2ccc(OC(F)(F)F)cc2n1C [Compound 1-79] | A (the control rate is 100%.) | A (the corrected mortality rate is 100%.) | A (the corrected mortality rate is 100%.) | ≥ 90% | ≥ 50% | ≥ 50% | 
CCS(=O)(=O)c1cc(C2CC2)cnc1-c1nc2ccc(SC(F)(F)F)cc2n1C [Compound 1-70] | A (the control rate is 100%.) | A (the corrected mortality rate is 100%.) | A (the corrected mortality rate is 100%.) |  |  |  | 
CCS(=O)(=O)c1cc(C2CC2)cnc1-c1nc2cc(C(F)(C(F)(F)F)C(F)(F)F)ccc2n1C [Compound 1-18] | A (the control rate is 100%.) | A (the corrected mortality rate is 100%.) | A (the corrected mortality rate is 100%.) |  |  |  | 
CCS(=O)(=O)c1cc(C2CC2)cnc1-c1nc2cc(OC(F)(F)C(F)F)ccc2n1C [Compound 1-73] | A (the control rate is 100%.) | A (the corrected mortality rate is 100%.) | A (the corrected mortality rate is 100%.) |  |  |  | 
CCSc1cc(C2CC2)cnc1-c1nc2cc(OC(F)(F)C(F)(F)F)ccc2n1C [Compound 1-74] | A (the control rate is 100%.) | A (the corrected mortality rate is 100%.) | A (the corrected mortality rate is 100%.) |  |  |  | 
CCSc1cc(C2CC2)cnc1-c1nc2ccc(OC(F)(F)C(F)F)cc2n1C [Compound 1-80] | A (the control rate is 100%.) | A (the corrected mortality rate is 100%.) | A (the corrected mortality rate is 100%.) |  |  |  | 
CCS(=O)(=O)c1cc(C2CC2)cnc1-c1nc2cc(OC(F)(F)C(F)(F)F)ccc2n1C [Compound 1-76] | A (the control rate is 100%.) | A (the corrected mortality rate is 100%.) | A (the corrected mortality rate is 100%.) |  |  |  | 
CCS(=O)(=O)c1cc(C2(C#N)CC2)cnc1-c1nc2cc(S(=O)(=O)C(F)(F)F)ccc2n1C [Compound 1-10, 1-(5-ethylsulfonyl-6-(l-methyl-5-(trifluoromethylsulfonyl)benzoxazol-2-yl)pyridin-3-yl)cyclopropane carbonitrile] | A (the control rate is 100%.) | A (the corrected mortality rate is 100%.) | A (the corrected mortality rate is 100%.) |  |  |  | 
CCSc1cc(C2CC2)cnc1-c1nc2cc(OC(F)(F)C(F)F)ccc2n1C [Compound 1-71] | A (the control rate is 100%.) | A (the corrected mortality rate is 100%.) | A (the corrected mortality rate is 100%.) |  |  |  | 
CCSc1cc(C2CC2)cnc1-c1nc2ccc(SC(F)(F)F)cc2n1C [Compound 1-68] | A (the control rate is 100%.) | A (the corrected mortality rate is 100%.) | A (the corrected mortality rate is 100%.) |  |  |  | 
CC[S+]([O-])c1cc(C2CC2)cnc1-c1nc2ccc(SC(F)(F)F)cc2n1C (stereo not shown) [Compound 1-69] | A (the control rate is 100%.) | A (the corrected mortality rate is 100%.) | A (the corrected mortality rate is 100%.) |  |  |  | 
CC[S+]([O-])c1cc(C2CC2)cnc1-c1nc2ccc(OC(F)(F)F)cc2n1C (stereo not shown) [Compound 1-78] | A (the control rate is 100%.) | A (the corrected mortality rate is 100%.) | A (the corrected mortality rate is 100%.) |  |  |  | 
CCSc1cc(C2CC2)cnc1-c1nc2ccc(OC(F)(F)F)cc2n1C [Compound 1-77] | A (the control rate is 100%.) | A (the corrected mortality rate is 100%.) | A (the corrected mortality rate is 100%.) |  |  |  | 
CC[S+]([O-])c1cc(C2(C#N)CC2)cnc1-c1nc2cc(SC(F)(F)F)ccc2n1C (stereo not shown) [Compound 1-7, 1-(5-ethylsulfinyl-6-(1-methyl-5-(trifluoromethylthio)benzoxazol-2-yl)pyridin-3-yl)cyclopropane carbonitrile] | A (the control rate is 100%.) | A (the corrected mortality rate is 100%.) | A (the corrected mortality rate is 100%.) |  |  |  | 
CCS(=O)(=O)c1cc(C2(C#N)CC2)cnc1-c1nc2cc([S+]([O-])C(F)(F)F)ccc2n1C (stereo not drawn) [Compound 1-9, 1-(5-ethylsulfonyl-6-(l-methyl-5-(trifluorosulfinyl)benzoxazol-2-yl)pyridin-3-yl)cyclopropane carbonitrile] | A (the control rate is 100%.) | A (the corrected mortality rate is 100%.) | A (the corrected mortality rate is 100%.) |  |  |  | 
CCS(=O)(=O)c1cc(C2CC2)cnc1-c1nc2cc(C(F)(C(F)(F)F)C(F)(F)F)c(F)cc2n1C [Compound 1-21] | A (the control rate is 100%.) | A (the corrected mortality rate is 100%.) | A (the corrected mortality rate is 100%.) |  |  |  | ≥ 90%
CCS(=O)(=O)c1cc(C2(C#N)CC2)cnc1-c1nc2cc(SC(F)(F)F)ccc2n1C [Compound 1-8, 1-(5-ethylsulfonyl-6-(1-methyl-5-(trifluoromethylthio)benzoxazol-2-yl)pyridin-3-yl)cyclopropane carbonitrile] | A (the control rate is 100%.) | A (the corrected mortality rate is 100%.) | A (the corrected mortality rate is 100%.) |  |  |  | 
